# Experimental data published in US10861154B2, “Cell analysis system, cell analysis program and cell analysis method” (Sony Corporation, priority 2013, dated 2020).
# At least one compound was matched to its structure with a doubt left.
# What was measured:
# [1] = test system: iPS cell-derived neural cells “iCell Neuron”; test: Motion amount of iCell Neuron after adding ionotropic receptor antagonists (Example 2); assay type: cell-based; settings: 5 μM, FIGS. 9 and 10
# Procedure: (§1) On the microscope having the chamber, iPS cell-derived neural cells “iCell Neuron” (produced by Cellular Dynamics International, Inc.) and rat cerebral cortex primary culture (produced by Lonza, Inc.) were each set. Video images of the cells, of 260 frames at object lens magnification 20× and at 7.5 fps (for iCell Neuron) or 5 fps (for rat cerebral cortex primary culture), were taken and were obtained as cell images. A variety of ionotropic receptor antagonists were added to each of the cell cultures. The ionotropic receptor antagonist was Bicuculline which is GABA (gamma-aminobutyrate) receptor antagonist; or CNQX (6-cyano-7-nitroquinoxaline-2,3-dione) which is non-NMDA Glu (glutamate) receptor antagonist.
# (§2) The cell image was analyzed with the use of the above-described cell analysis system. Specifically, the motion information was extracted by block matching, using each of the neural cells in the cell image as the extraction range, and the motion amount was calculated from the motion information. FIGS. 9 to 12 are graphs showing results of the calculation of the motion amount. […] Note that the motion amounts shown in the respective figures are average values of the calculated motion amounts for a plurality of detail parts of nerves. […]
# [2] = test system: rat cerebral cortex primary culture; test: Motion amount of rat cerebral cortex primary culture after adding ionotropic receptor antagonists (Example 2); assay type: cell-based; settings: 5 μM, FIGS. 11 and 12
# Procedure: as §1, §2
compound,measurement,setting,value
CN1CCc2cc3c(cc2[C@H]1[C@@H]1OC(=O)c2c1ccc1c2OCO1)OCO3 [Bicuculline],"relative motion amount after adding the ionotropic receptor antagonist, value at 0 min = 1",[1],transiently increased
same,"relative motion amount after adding the ionotropic receptor antagonist, value at 0 min = 1",[2],little change
